Experimental data reported in publication PMC8291714.
Results are given in words; binding and its absence hold for the method and conditions named. In cells and extracts the contact can be indirect. Some results given as binding are weak or reduced against the parent protein; the word gives no strength.

The chains behind the UniProt entries cited, without tags or fusion partners. Residues count along the entry.
UniProt Q9IPJ8, residues 174-297: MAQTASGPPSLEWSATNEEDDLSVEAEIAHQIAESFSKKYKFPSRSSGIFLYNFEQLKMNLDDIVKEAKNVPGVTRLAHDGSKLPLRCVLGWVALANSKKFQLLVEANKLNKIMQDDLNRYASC
UniProt P42224: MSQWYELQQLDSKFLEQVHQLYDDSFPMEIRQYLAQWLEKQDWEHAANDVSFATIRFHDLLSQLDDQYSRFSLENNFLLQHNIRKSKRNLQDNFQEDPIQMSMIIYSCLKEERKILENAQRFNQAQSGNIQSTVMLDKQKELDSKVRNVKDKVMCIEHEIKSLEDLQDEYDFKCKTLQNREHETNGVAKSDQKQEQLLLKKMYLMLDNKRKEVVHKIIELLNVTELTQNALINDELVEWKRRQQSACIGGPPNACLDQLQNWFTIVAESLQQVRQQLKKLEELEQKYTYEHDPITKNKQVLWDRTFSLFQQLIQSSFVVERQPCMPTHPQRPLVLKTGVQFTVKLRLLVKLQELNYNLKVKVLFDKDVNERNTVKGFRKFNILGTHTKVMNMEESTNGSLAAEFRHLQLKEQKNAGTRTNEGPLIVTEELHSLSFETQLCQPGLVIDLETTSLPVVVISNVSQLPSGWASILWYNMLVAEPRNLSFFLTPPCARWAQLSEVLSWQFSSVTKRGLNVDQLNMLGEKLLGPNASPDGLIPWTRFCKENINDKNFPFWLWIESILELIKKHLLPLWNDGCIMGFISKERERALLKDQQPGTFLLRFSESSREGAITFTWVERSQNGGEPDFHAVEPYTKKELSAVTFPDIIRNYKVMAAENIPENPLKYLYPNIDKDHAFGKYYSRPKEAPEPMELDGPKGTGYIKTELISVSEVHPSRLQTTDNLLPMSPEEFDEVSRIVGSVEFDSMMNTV
UniProt O55611: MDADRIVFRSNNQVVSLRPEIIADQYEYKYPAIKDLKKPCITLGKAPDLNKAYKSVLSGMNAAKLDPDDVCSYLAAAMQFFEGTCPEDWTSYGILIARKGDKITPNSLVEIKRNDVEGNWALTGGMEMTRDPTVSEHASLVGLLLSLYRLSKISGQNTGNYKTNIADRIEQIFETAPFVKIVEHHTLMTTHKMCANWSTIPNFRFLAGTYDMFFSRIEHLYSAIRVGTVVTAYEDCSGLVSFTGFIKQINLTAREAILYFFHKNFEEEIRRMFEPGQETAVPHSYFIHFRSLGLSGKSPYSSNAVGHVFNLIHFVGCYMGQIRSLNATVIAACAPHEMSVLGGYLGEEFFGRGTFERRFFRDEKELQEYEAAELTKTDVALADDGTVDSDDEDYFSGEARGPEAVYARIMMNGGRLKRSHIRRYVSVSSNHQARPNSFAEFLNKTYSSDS

Assays:
[1] = biological target: GFP-PCTD (P protein residues 174-297) (Rabies virus (RABV)) (UniProt Q9IPJ8); assay: co-IP
[2] = biological target: STAT1-GFP, HEK-293T cells not treated with IFN (UniProt P42224); assay: co-IP

Substance | binding [1] | binding [2]
mCherry-N protein (from UniProt O55611 1-450) | binds | –
FLAG-N protein (from UniProt O55611 1-450) | – | no binding
